Results deposited as PubChem BioAssay AID686943 (Drosophila RNAi Screening Center, 2013).
The screen tested about 23,000 reagents; below is a random part of those that have a named target and a result. 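Extra replicates exist only for a retested subset of genes; insulin dose and duration not given; both raised and lowered dpERK matter.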 Reagents against one gene are numbered here. A plus sign joins genes that one reagent is predicted to hit. Further read-outs or replicates are left out here. The record does not give: the amount of reagent, the time to read-out.

Aim: 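Knockdowns that increase or decrease active ERK after insulin receptor stimulation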 (primary screen)
Cells: Drosophila S2R+ haemocyte-like cells expressing YFP-tagged ERK (Rolled)
Reagents: long dsRNA against Drosophila genes
Treatment: insulin stimulation versus unstimulated cells; dose and duration not given
Read-out: 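Per-plate z-scores of phospho-ERK immunostaining normalised to YFP-tagged ERK, measured with and without insulin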
Direction: replicate 1, z-score of dpERK with insulin and replicate 2, z-score of dpERK with insulin: higher = more active ERK per ERK-YFP after insulin

After knock-down of Tim23 (GeneID 3355096), the record shows replicate 1, z-score of dpERK with insulin -0.07; replicate 2, z-score of dpERK with insulin 0.5.
Against CG11504 (GeneID 43557), the entry reads replicate 1, z-score of dpERK with insulin 1.16; replicate 2, z-score of dpERK with insulin 1.16.
For CG13005 (GeneID 32670) the deposit lists replicate 1, z-score of dpERK with insulin -0.33; replicate 2, z-score of dpERK with insulin -0.24.
For Paip1 (GeneID 36913), the values are replicate 1, z-score of dpERK with insulin -2.92; replicate 2, z-score of dpERK with insulin -3.11.
Knock-down of CG13362 (GeneID 31018) gave: replicate 1, z-score of dpERK with insulin 0.51; replicate 2, z-score of dpERK with insulin 0.27.
After knock-down of ppk22 (GeneID 318593) the results were replicate 1, z-score of dpERK with insulin -0.19; replicate 2, z-score of dpERK with insulin 0.73.
Knock-down of Dis3 (GeneID 42900) came out at: replicate 1, z-score of dpERK with insulin 0.99; replicate 2, z-score of dpERK with insulin 0.69.
For cue (GeneID 38174), the entry reads replicate 1, z-score of dpERK with insulin 0.19; replicate 2, z-score of dpERK with insulin 0.44.
Tango11 (GeneID 246596) #1 showed replicate 1, z-score of dpERK with insulin 0.59; replicate 2, z-score of dpERK with insulin 0.56.
Tango11 (GeneID 246596) #2 gave replicate 1, z-score of dpERK with insulin -0.57; replicate 2, z-score of dpERK with insulin -1.41.
Against shf (GeneID 31617), the entry reads replicate 1, z-score of dpERK with insulin 0.56; replicate 2, z-score of dpERK with insulin 0.7.
With knock-down of CR11023 (GeneID 33155) the results were replicate 1, z-score of dpERK with insulin 0.13; replicate 2, z-score of dpERK with insulin -0.72.
CG33003 (GeneID 318826) scored replicate 1, z-score of dpERK with insulin 0.17; replicate 2, z-score of dpERK with insulin 0.04.
Silencing of Pdh (GeneID 39812) came out at: replicate 1, z-score of dpERK with insulin 0.3; replicate 2, z-score of dpERK with insulin -0.07.
After knock-down of Gr59d (GeneID 117343) the results were replicate 1, z-score of dpERK with insulin 0; replicate 2, z-score of dpERK with insulin 0.27.
After knock-down of CG33332 (GeneID 2768669), the record shows replicate 1, z-score of dpERK with insulin -0.94; replicate 2, z-score of dpERK with insulin -0.27.
With knock-down of RhoGEF64C (GeneID 38578) #1, the record shows replicate 1, z-score of dpERK with insulin -0.34; replicate 2, z-score of dpERK with insulin 0.44.
Depletion of RhoGEF64C (GeneID 38578) #2 gave: replicate 1, z-score of dpERK with insulin -1.7; replicate 2, z-score of dpERK with insulin 0.2.
For aay (GeneID 39085), the entry reads replicate 1, z-score of dpERK with insulin 0.51; replicate 2, z-score of dpERK with insulin 0.08.
Knock-down of CG17821 (GeneID 37159) resulted in: replicate 1, z-score of dpERK with insulin 0.01; replicate 2, z-score of dpERK with insulin 0.04.
Silencing of CG18853 (GeneID 246511) gave: replicate 1, z-score of dpERK with insulin 0.25; replicate 2, z-score of dpERK with insulin -0.37.
Against Mkrn1 (GeneID 44131), the entry reads replicate 1, z-score of dpERK with insulin 0.59; replicate 2, z-score of dpERK with insulin 0.37.
SsRbeta (GeneID 39768) scored replicate 1, z-score of dpERK with insulin 0.41; replicate 2, z-score of dpERK with insulin -0.28.
For CG6462 (GeneID 38681), the entry reads replicate 1, z-score of dpERK with insulin -0.17; replicate 2, z-score of dpERK with insulin -0.27.
After knock-down of CG33203 (GeneID 43414) #1, the screen gave replicate 1, z-score of dpERK with insulin -1.78; replicate 2, z-score of dpERK with insulin -0.21.
After knock-down of CG33203 (GeneID 43414) #2, the record shows replicate 1, z-score of dpERK with insulin 1.36; replicate 2, z-score of dpERK with insulin -0.11.
Depletion of CG33203 (GeneID 43414) #3 resulted in: replicate 1, z-score of dpERK with insulin 0.68; replicate 2, z-score of dpERK with insulin -0.04.
CG42306 + Gint3 gave replicate 1, z-score of dpERK with insulin -0.27; replicate 2, z-score of dpERK with insulin -0.13.
CG32032 (GeneID 192535) scored replicate 1, z-score of dpERK with insulin -0.68; replicate 2, z-score of dpERK with insulin -1.26.
For CG9287 (GeneID 34194) #1 the deposit lists replicate 1, z-score of dpERK with insulin 0.76; replicate 2, z-score of dpERK with insulin 1.92.
CG9287 (GeneID 34194) #2 showed replicate 1, z-score of dpERK with insulin -1.26; replicate 2, z-score of dpERK with insulin 0.22.
After knock-down of CG8249 (GeneID 36742), the record shows replicate 1, z-score of dpERK with insulin 0.98; replicate 2, z-score of dpERK with insulin 0.
CG11241 (GeneID 40492) #1 gave replicate 1, z-score of dpERK with insulin 0.1; replicate 2, z-score of dpERK with insulin 1.02.
With knock-down of CG11241 (GeneID 40492) #2, the screen gave replicate 1, z-score of dpERK with insulin 0.41; replicate 2, z-score of dpERK with insulin 0.48.
Silencing of Grl58a (GeneID 37509) came out at: replicate 1, z-score of dpERK with insulin -0.75; replicate 2, z-score of dpERK with insulin 0.49.
For CG8420 (GeneID 41097), the entry reads replicate 1, z-score of dpERK with insulin -0.17; replicate 2, z-score of dpERK with insulin -0.34.
Knock-down of btz (GeneID 43331) came out at: replicate 1, z-score of dpERK with insulin -1.04; replicate 2, z-score of dpERK with insulin -1.22.
For Roc2 (GeneID 36246), the entry reads replicate 1, z-score of dpERK with insulin 0.91; replicate 2, z-score of dpERK with insulin 0.14.
For CG31370 (GeneID 43060) the deposit lists replicate 1, z-score of dpERK with insulin -0.55; replicate 2, z-score of dpERK with insulin 0.5.
Against Gycbeta100B (GeneID 43682) #1 the deposit lists replicate 1, z-score of dpERK with insulin -0.02; replicate 2, z-score of dpERK with insulin 0.08.
Gycbeta100B (GeneID 43682) #2 showed replicate 1, z-score of dpERK with insulin -1.76; replicate 2, z-score of dpERK with insulin -0.74.
Depletion of Gycbeta100B (GeneID 43682) #3 resulted in: replicate 1, z-score of dpERK with insulin 0.03; replicate 2, z-score of dpERK with insulin 1.83.

An excerpt from above, limited to “replicate 2, z-score of dpERK with insulin”:
CG33203 (GeneID 43414) #2	-0.11
CG33203 (GeneID 43414) #3	-0.04
CG42306 + Gint3	-0.13
CG32032 (GeneID 192535)	-1.26
CG9287 (GeneID 34194) #1	1.92
